The record followed here is the supplement of paper PMC12819154, “High-throughput peptide-centric local stability assay extends protein–ligand identification to membrane proteins, tissues and bacteria” (Nature Structural & Molecular Biology, 2025).

The chains behind the UniProt entries cited, without tags or fusion partners. Where a name states a change or a piece, a line headed by the entry shows the natural chain unless it says otherwise.
UniProt Q6Q788: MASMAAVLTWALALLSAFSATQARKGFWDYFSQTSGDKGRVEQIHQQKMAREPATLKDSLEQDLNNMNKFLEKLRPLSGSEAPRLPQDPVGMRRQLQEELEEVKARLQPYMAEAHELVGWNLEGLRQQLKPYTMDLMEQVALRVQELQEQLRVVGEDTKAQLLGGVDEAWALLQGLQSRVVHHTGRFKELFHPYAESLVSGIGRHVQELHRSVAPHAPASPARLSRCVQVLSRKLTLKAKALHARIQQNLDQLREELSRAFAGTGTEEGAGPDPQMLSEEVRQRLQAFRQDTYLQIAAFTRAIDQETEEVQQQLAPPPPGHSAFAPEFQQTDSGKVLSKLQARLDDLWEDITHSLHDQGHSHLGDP
UniProt Q6A1A2: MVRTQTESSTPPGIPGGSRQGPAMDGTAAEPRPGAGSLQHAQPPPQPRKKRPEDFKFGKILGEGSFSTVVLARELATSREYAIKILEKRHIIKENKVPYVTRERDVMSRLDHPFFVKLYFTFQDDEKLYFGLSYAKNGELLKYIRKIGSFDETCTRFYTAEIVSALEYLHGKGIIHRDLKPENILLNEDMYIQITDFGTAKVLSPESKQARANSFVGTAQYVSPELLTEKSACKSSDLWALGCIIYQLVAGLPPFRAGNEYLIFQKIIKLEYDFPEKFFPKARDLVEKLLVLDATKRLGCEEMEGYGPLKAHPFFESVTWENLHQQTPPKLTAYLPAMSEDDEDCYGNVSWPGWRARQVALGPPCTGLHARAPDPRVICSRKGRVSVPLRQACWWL
UniProt Q6IC98: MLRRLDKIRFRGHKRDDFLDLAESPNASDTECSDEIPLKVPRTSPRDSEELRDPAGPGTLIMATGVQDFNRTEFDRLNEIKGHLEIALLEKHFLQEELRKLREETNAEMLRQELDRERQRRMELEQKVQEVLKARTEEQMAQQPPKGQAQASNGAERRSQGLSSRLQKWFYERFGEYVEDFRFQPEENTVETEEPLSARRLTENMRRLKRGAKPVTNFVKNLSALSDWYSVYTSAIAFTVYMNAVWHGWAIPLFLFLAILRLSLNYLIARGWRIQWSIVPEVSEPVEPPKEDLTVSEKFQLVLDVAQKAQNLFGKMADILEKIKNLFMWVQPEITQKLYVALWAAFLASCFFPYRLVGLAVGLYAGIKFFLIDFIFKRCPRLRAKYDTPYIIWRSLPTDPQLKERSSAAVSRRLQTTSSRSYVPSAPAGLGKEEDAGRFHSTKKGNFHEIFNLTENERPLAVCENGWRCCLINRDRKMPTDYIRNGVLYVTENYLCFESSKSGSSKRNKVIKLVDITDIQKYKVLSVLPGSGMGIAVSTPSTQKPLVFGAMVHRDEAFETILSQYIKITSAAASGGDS
UniProt Q6NVU6: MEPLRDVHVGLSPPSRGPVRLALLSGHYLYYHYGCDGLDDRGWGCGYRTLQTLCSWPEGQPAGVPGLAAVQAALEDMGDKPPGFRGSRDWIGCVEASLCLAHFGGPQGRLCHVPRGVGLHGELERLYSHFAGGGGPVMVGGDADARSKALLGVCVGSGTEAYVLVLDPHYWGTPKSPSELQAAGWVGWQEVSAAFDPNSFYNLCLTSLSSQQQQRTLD
UniProt Q5XG87: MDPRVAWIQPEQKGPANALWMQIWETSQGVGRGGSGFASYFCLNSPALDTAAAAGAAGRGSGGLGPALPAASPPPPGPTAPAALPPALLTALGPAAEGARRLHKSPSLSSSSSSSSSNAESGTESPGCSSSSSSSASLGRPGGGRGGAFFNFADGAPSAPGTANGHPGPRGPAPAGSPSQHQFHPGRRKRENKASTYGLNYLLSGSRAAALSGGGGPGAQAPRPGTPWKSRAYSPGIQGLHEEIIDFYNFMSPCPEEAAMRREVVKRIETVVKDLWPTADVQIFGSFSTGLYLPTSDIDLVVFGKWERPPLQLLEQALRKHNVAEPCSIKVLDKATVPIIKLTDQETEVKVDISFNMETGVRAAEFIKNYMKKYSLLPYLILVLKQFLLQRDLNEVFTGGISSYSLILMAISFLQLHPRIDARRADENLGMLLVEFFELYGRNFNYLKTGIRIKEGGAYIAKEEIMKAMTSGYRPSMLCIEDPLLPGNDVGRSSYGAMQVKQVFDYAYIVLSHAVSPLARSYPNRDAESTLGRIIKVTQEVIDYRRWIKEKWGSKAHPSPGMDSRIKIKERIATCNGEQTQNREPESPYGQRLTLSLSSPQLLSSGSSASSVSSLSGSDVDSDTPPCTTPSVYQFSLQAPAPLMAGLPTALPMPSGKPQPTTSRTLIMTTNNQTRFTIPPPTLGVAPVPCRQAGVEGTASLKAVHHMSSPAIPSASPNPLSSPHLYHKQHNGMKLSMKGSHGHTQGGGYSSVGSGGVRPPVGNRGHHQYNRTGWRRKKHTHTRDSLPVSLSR
UniProt Q5VUG0: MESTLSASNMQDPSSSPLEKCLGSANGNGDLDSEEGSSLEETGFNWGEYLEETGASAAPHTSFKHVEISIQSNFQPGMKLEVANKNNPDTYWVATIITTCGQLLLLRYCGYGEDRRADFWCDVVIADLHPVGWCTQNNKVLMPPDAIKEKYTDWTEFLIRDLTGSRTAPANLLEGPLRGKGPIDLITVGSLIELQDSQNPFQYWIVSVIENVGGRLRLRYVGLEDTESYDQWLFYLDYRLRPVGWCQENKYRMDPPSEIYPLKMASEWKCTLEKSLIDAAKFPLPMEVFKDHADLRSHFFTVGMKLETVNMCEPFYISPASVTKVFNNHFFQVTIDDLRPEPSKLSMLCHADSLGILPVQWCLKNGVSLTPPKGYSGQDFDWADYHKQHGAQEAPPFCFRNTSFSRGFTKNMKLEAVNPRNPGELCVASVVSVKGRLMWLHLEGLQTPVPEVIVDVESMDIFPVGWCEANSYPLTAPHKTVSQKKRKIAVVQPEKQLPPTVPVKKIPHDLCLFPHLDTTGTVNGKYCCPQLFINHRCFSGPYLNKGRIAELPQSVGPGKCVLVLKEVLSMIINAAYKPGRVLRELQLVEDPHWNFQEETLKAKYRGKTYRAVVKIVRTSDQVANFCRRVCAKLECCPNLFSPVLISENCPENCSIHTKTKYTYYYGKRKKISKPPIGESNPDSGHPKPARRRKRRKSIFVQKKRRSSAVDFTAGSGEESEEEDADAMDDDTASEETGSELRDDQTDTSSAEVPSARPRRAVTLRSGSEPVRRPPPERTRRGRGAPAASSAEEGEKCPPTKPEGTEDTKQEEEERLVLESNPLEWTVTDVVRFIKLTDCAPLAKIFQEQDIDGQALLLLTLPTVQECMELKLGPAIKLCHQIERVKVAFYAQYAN
UniProt Q6DN90: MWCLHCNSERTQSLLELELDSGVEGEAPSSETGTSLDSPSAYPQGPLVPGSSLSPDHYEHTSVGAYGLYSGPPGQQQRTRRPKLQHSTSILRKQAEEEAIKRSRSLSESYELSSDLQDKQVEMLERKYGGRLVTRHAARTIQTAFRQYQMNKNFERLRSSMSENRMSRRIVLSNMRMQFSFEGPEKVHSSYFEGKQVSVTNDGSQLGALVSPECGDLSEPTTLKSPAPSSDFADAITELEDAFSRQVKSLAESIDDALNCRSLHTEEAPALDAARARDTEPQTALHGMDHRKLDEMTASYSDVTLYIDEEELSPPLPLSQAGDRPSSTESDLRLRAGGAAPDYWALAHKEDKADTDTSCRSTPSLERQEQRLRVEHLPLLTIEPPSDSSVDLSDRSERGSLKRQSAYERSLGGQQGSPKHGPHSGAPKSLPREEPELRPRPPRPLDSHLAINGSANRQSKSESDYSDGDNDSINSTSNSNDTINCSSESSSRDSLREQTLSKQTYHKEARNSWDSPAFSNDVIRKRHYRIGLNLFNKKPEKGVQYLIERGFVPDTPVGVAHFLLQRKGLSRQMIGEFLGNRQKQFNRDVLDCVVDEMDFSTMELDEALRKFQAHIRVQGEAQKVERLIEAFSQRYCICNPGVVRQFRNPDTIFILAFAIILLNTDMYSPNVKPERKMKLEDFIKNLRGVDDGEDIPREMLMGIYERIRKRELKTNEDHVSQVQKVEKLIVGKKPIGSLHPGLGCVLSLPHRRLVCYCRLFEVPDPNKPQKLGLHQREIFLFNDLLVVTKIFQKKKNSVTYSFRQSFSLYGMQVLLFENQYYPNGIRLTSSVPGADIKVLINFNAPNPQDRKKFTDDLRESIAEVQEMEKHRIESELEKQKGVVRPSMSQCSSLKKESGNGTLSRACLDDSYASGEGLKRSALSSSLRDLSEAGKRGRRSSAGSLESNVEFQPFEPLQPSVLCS
UniProt Q6PCT2: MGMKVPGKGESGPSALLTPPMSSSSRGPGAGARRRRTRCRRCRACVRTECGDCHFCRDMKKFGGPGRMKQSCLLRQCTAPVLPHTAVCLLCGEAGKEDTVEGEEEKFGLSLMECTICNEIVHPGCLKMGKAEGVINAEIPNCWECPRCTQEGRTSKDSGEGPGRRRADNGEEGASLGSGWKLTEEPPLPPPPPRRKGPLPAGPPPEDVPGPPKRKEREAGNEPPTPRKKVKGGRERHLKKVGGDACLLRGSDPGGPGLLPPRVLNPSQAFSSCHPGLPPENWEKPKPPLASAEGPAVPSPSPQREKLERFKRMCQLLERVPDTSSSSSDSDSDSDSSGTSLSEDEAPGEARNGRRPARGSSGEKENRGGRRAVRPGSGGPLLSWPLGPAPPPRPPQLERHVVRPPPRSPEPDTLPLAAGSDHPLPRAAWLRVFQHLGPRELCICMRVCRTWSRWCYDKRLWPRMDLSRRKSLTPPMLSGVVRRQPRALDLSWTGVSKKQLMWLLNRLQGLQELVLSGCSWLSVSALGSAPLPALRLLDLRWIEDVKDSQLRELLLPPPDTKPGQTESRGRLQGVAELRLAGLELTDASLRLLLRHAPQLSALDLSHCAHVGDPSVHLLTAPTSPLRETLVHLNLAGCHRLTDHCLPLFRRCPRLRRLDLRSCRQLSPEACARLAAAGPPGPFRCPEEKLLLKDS
UniProt Q5VWQ0: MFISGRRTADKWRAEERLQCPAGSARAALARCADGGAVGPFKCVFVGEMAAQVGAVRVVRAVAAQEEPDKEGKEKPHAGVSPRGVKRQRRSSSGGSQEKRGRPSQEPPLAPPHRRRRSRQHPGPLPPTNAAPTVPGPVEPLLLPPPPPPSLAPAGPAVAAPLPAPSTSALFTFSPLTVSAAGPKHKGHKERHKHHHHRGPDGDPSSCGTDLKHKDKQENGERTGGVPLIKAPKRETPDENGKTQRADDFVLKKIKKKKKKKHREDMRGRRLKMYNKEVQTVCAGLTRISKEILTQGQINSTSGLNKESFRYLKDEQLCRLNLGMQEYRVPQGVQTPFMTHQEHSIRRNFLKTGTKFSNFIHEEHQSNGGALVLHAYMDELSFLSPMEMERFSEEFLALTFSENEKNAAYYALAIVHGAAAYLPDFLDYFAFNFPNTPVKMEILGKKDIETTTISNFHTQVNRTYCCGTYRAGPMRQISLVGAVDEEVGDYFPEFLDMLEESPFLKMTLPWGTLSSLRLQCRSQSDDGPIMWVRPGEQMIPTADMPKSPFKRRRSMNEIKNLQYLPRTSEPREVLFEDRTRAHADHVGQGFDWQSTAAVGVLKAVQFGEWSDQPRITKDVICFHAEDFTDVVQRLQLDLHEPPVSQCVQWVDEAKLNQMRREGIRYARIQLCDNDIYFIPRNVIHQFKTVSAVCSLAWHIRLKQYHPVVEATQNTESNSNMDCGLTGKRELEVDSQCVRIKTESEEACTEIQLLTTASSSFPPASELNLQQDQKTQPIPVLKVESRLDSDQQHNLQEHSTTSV

The list shows a part of the results. Most values lie at the level of the controls, where differences are scatter.

Compound in this assay: Cc1nc(Nc2ncc(C(=O)Nc3c(C)cccc3Cl)s2)cc(N2CCN(CCO)CC2)n1 [dasatinib]
As to the kind of experiment: log2 fold change of tryptic peptide abundance, ligand vs vehicle (limited proteolysis) (log2 ratio); higher = more trypsin-susceptible (destabilized). The conditions noted are these: ligand concentration: 5 uM; sample: K562 cleared lysate.
Turning to “UniProt Q6Q788 (peptide sequence: PLSGSEAPR, peptide start residue: 76)”, the log2 fold change is -0.0638.
Under “UniProt Q6A1A2 (peptide sequence: ENKVPYVTR, peptide start residue: 121)” stands -0.138; under “GRAMD4 (peptide sequence: FGEYVEDFR, peptide start residue: 174) (UniProt Q6IC98)”, 0.238.
For the target “UFSP1 (peptide sequence: GVGLHGELER, peptide start residue: 40) (UniProt Q6NVU6)”, the log2 fold change is -0.468.
Under “UniProt Q5XG87 (peptide sequence: AAALSGGGGPGAQAPRPGTPWK, peptide start residue: 188)” stands 0.308; under “UniProt Q5VUG0 (peptide sequence: IAVVQPEK, peptide start residue: 464)”, -0.192.
As to “IQSEC1 (peptide sequence: GVVRPSMSQCSSLK, peptide start residue: 881) (UniProt Q6DN90)”, the log2 fold change is -0.376.
On to “FBXL19 (peptide sequence: KGPLPAGPPPEDVPGPPK, peptide start residue: 196) (UniProt Q6PCT2)”, for which the log2 fold change is -0.463.
In the case of “ANKRD12 (peptide sequence: SSFVSDNSLNR, peptide start residue: 1178) (UniProt Q6UB98)” it was 0.387.
In the case of “UniProt Q5VWQ0 (peptide sequence: GRPSQEPPLAPPHR, peptide start residue: 101)” it was -0.0934.
Under “CEP135 (peptide sequence: LFSDLVHTTESLR, peptide start residue: 36) (UniProt Q66GS9)” stands -0.138.
